This data set concerns human esophageal cancer biopsy specimens (tumor area vs non-tumor area). Kind of data set: Imaging of human esophageal cancer biopsy specimens. Conditions: probe 50 μM; for AUC (ROC curve): biopsy specimens; for Cut-off: from ROC curve. Here is the method:
One biopsy sample each from a tumor area and non-tumor area were collected from patients undergoing preoperative upper endoscopy, and imaging and fluorescence intensity were measured over time after dropwise addition of various fluorescent probes (compounds 1-6).
In addition, since it was possible to gather ten or more cases for GP-HMRG (compound 1), EP-HMRG (compound 2), and PP-HMRG (compound 6), the cut-off value was calculated from the data using an ROC curve, and the sensitivity, specificity, correct diagnosis rate, positive predictive value, and negative predictive value were determined.

As for `Nc1ccc2c(c1)Oc1cc(NC(=O)[C@@H]3CCCN3C(=O)[C@@H]3CCCN3)ccc1C21OCc2ccccc21` (stereo partly drawn) [Compound 6], under “5 min”, the Correct diagnosis rate is given as 82.1, the Negative predictive value was 72.2, the Positive predictive value was 100 and the Sensitivity is recorded as 66.7. Moreover, where the note is “5 min”, the Specificity was determined as 100, the “AUC (ROC curve)” value is 0.88 and the Cut-off is recorded as 0.54. Besides, under “10 min”, the Correct diagnosis rate was determined as 89.3, the Negative predictive value was 91.7, the Positive predictive value is listed as 87.5 and the Sensitivity was determined as 93.3. In addition, for the setting “10 min”, the Specificity is given as 84.6, the “AUC (ROC curve)” value amounted to 0.94 and the Cut-off is 0.64. Moreover, for the setting “30 min”, the Correct diagnosis rate is on record as 88.5, the Negative predictive value is 90.9, the Positive predictive value is 86.7 and the Sensitivity turned out to be 92.9. Besides, where the note is “30 min”, the Specificity is 83.3, the “AUC (ROC curve)” value amounted to 0.94 and the Cut-off is recorded as 1.44.

On to `NCC(=O)N1CCC[C@H]1C(=O)Nc1ccc2c(c1)Oc1cc(N)ccc1C21OCc2ccccc21` (stereo partly drawn) [Compound 1], for which, where the note is “5 min”, the Correct diagnosis rate was found to be 96.8, the Negative predictive value is 100, the Positive predictive value is reported as 93.3 and the Sensitivity stood at 100. Where the note is “5 min”, the Specificity came to 94.1, the “AUC (ROC curve)” value is reported as 0.99 and the Cut-off is listed as 0.54. For the same compound, under “10 min”, the Correct diagnosis rate is listed as 96.8, the Negative predictive value was 100, the Positive predictive value is 93.3 and the Sensitivity stood at 100. Moreover, for the setting “10 min”, the Specificity is recorded as 94.1, the “AUC (ROC curve)” value turned out to be 0.98 and the Cut-off was found to be 1.02. For the same compound, where the note is “30 min”, the Correct diagnosis rate came out at 90.3, the Negative predictive value was 93.8, the Positive predictive value is listed as 86.7 and the Sensitivity is recorded as 92.9. For the same compound, under “30 min”, the Specificity is 88.2, the “AUC (ROC curve)” value was 0.95 and the Cut-off was 2.10.

Consider `Nc1ccc2c(c1)Oc1cc(NC(=O)[C@@H]3CCCN3C(=O)[C@@H](N)CCC(=O)O)ccc1C21OCc2ccccc21` (stereo partly drawn) [Compound 2], for which, under “5 min”, the Correct diagnosis rate was 90.5, the Negative predictive value is listed as 97.3, the Positive predictive value is reported as 83.8 and the Sensitivity is 96.9. In addition, under “5 min”, the Specificity is given as 85.4, the “AUC (ROC curve)” value came out at 0.93 and the Cut-off is listed as 0.37. For the setting “10 min”, the Correct diagnosis rate came to 89.2, the Negative predictive value was 97.2, the Positive predictive value was 81.6 and the Sensitivity was 96.9. For the same compound, for the setting “10 min”, the Specificity is on record as 83.3, the “AUC (ROC curve)” value was 0.93 and the Cut-off turned out to be 0.67. Moreover, under “30 min”, the Correct diagnosis rate came to 93.2, the Negative predictive value is 97.4, the Positive predictive value was 88.6 and the Sensitivity came out at 96.9. Moreover, under “30 min”, the Specificity turned out to be 90.5, the “AUC (ROC curve)” value worked out at 0.95 and the Cut-off is on record as 1.77.

Source of the values: patent US10383956B2, “Fluorescent probe for detecting dipeptidyl peptidase IV” (The University of Tokyo, priority 2014, dated 2019).
